Assay results reported in article PMC3694053.
These are yes or no findings as the source states them, for the method shown. Binding seen in cells or lysates may run through a third protein. Binding can be weak; no strength is given. For part of these data: Where a sequence is shown, tags or fusion partners need not be part of it.

Chains of the proteins cited; added tags and fusions are not shown.
UniProt Q15208: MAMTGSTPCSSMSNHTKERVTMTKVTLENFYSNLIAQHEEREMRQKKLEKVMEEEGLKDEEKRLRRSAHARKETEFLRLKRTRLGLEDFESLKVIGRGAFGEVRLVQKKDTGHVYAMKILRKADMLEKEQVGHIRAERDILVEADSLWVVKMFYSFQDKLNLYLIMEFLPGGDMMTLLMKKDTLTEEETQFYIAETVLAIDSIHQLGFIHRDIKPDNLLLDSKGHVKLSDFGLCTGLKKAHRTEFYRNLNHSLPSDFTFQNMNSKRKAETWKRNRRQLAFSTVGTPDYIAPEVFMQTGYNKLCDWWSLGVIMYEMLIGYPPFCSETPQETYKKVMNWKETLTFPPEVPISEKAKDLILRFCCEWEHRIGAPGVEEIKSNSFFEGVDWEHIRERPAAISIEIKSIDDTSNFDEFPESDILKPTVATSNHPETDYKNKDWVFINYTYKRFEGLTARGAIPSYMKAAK

Legend:
HA-NDR1 = HA-NDR1 (UniProt Q15208); assay: co-IP; 293T cells expressing Rluc-SnoN (wild type or deletion mutants) alone or with HA-NDR1; immunoprecipitation with the HA antibody, Renilla luciferase activity of the immunoprecipitate normalised to Rluc-SnoN and NDR1 expression
MYC-SnoN = molecular target: T1, MYC-SnoN (UniProt P12757); assay: co-IP; 293T cells expressing Rluc-NDR1 (wild type or deletion mutants) alone or with MYC-SnoN; immunoprecipitation with the MYC or SnoN antibody, Renilla luciferase activity of the immunoprecipitate normalised to expression
T1 sequence: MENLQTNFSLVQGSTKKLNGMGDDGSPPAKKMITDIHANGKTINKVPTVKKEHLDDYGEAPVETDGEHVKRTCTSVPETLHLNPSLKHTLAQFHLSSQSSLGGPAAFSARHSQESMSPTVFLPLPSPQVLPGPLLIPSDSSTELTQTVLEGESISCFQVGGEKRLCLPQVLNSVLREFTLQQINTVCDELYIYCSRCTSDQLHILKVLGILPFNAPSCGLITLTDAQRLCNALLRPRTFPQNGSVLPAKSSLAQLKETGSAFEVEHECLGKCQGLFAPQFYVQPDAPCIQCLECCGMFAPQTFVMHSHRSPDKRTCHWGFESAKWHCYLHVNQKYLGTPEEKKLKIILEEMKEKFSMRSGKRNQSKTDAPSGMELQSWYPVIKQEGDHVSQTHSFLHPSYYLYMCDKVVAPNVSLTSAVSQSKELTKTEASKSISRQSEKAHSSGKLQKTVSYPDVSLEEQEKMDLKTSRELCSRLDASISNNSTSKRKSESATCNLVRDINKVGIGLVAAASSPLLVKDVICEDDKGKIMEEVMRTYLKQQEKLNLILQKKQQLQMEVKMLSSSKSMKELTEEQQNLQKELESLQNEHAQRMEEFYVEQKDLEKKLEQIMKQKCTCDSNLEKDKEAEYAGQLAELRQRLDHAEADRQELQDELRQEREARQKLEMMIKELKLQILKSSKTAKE

| binding (HA-NDR1) | Substance | binding (MYC-SnoN) |
| --- | --- | --- |
| binds | Rluc-SnoN with deletion of amino acid residues 1–366 (from UniProt P12757-1) (domain or fragment) | – |
| – | Rluc-NDR1 with deletion of the C-terminal regulatory region (domain or fragment) | binds |
| binds | Rluc-SnoN with deletion of amino acid residues 366–684 (from UniProt P12757-1) (domain or fragment) | – |
